# Source: PubChem BioAssay AID504444 (National Center for Advancing Translational Sciences (NCATS), 2011)
# About 7,500 (2.1%) of roughly 360,000 compounds were called active. Inconclusive results, whose numbers are uncertain, are shown with a selection of clear calls. Calls follow the shape of the dose curve; as a rule, active = well fitted inhibition curve with a large enough effect; inconclusive = small, poorly fitted or top-dose-only effect, or effect the other way; inactive = flat fitted curve, though single readings scatter. Potencies of inconclusive entries are doubtful fits and often do not repeat.
# Assay: Nrf2 qHTS screen for inhibitors; also: nearly all actives have a fitted effect of over 60% in size
# Details: A549 ARE-Fluc reporter, luciferase luminescence, 18-24 h; series mostly up to 46 µM
# How it was run: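 Nrf2 function is reported as luminescence of an ARE-controlled luciferase in A549 cells. Compounds were tested at several concentrations, and a CellTiter-Fluor read on the same wells flagged cytotoxicity.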
# Potency is read from the fitted curve at half-maximal effect.
row,SMILES,Potency
1,O=C(CCCN1C(=O)/C(=C\c2cccs2)SC1=S)Nc1cccnc1,"inconclusive: 4.11 µM [activator, full curve, poor fit]"
2,O=C(CCc1ccccc1)NC(=S)Nc1cccc(C(=O)O)c1,"inconclusive: 23.1 µM [activator, partial curve]"
3,Cc1ccc(C(C(=O)NCC2CCCO2)N(Cc2ccccc2)C(=O)c2ccc(-c3ccccc3)[nH]2)o1 (stereo not given),"inconclusive: 18.4 µM [falling, single point]"
4,CNC(=O)c1cc2cc(OC)ccc2oc1=O,inactive
5,COc1c(O)cc2c(c1O)[C@@H]1O[C@H](CO)[C@@H](O)[C@H](O)[C@H]1OC2=O,inactive
6,O=C(CSc1nccn1-c1ncc(C(F)(F)F)cc1Cl)c1ccc(Br)cc1,"inconclusive: 11.6 µM [activator, partial curve, poor fit]"
7,CN(C)c1ccc(-n2cccc2/C=C/[N+](=O)[O-])cc1,"inconclusive: 29.1 µM [activator, single point]"
8,COc1ccc(NC(=O)CSCC(=O)N(C)CCOc2ccc(Cl)cc2)cc1,"inconclusive: 18.4 µM [falling, single point]"
9,Cn1nnnc1Sc1ncnc2scc(-c3cnc(N)nc3)c12,"inconclusive: 25.9 µM [falling, partial curve, poor fit]"
10,CC1CN(C(=O)N2CCC(C(=O)NCc3ccco3)CC2)c2ccccc2O1 (stereo not given),"inconclusive: 25.9 µM [falling, single point]"
11,CCc1nc2ccc(C(=O)Nc3cccc(C(C)=O)c3)cc2nc1CC,"inconclusive: 23.1 µM [activator, single point]"
12,CC1(C)C[C@H](O)[C@@]23C[C@@H](OC2=O)[C@]2(C)C(=CCC4[C@@]5(C)CC[C@H](O)C(C)(C)C5CC[C@]42C)[C@@H]3C1 (stereo not given in full),"inconclusive: 23.1 µM [falling, partial curve]"
13,CCOC(=O)c1c(NC(=O)C2CC(Cl)=CCC2C(=O)O)sc2c1CC(C)(C)OC2 (stereo not given),"inconclusive: 11.6 µM [falling, partial curve, poor fit]"
14,CC1CCN(c2nc3ccccc3nc2C(F)(F)F)CC1,"inconclusive: 20.6 µM [activator, partial curve, poor fit]"
15,COc1ccc(N(Cc2ccccc2)S(=O)(=O)c2cccc(C(=O)NCC3CCCO3)c2)cc1 (stereo not given),"inconclusive: 29.1 µM [falling, single point]"
16,CC1CC(C)(C)N2C(=O)C3(Nc4ccccc4S3)c3cccc1c32 (stereo not given),"inconclusive: 29.1 µM [falling, single point]"
17,O=C(Nc1nc2ccccc2n1CCOc1ccccc1Cl)c1ccccc1,"inconclusive: 1.03 µM [activator, partial curve, poor fit]"
18,Clc1ccc(CNc2ncnc3[nH]ncc23)cc1Cl,"inconclusive: 25.9 µM [falling, partial curve, poor fit]"
19,Cc1ccc(SCc2nc3ccccc3n2CC(=O)Nc2ccccc2)cc1,"inconclusive: 18.4 µM [falling, single point]"
20,COc1ccc(C2=Nn3c(nnc3-c3ccccc3F)SC2)cc1OCC1CC1,"inconclusive: 20.6 µM [falling, single point]"

row,SMILES,Potency
1,O=C(CCSc1nc(-c2ccco2)cc(C(F)(F)F)n1)Nc1ccc2c(c1)OCO2,inactive
2,Cc1cc(C)nc(SC2c3cccc4cccc(c34)C2NS(=O)(=O)c2ccccc2)n1 (stereo not given),"inconclusive: 29.1 µM [falling, single point]"
3,c1ccc2c(c1)oc1c(Nc3ccc4c(c3)OCO4)ncnc12,"inconclusive: 0.58 µM [activator, full curve]"
4,COc1ccc(C(=O)NNC(=O)c2ccccn2)cc1,"inconclusive: 29.1 µM [falling, single point]"
5,CCN(CC)c1ccc(NS(=O)(=O)c2ccc(OC)cc2)cc1,"inconclusive: 5.17 µM [falling, single point]"
6,CCN(Cc1ccccc1)C(=O)c1cn(-c2cccc(OC)c2)c(=O)c2ccccc12,inactive
7,CC(C)[C@H](NC(=O)c1ccccc1)C(=O)OCC(=O)/C=C1/N(C)c2ccccc2C1(C)C,"inconclusive: 29.1 µM [falling, single point]"
8,CCc1noc(C)c1C(=O)Oc1ccc(N(C)S(=O)(=O)c2ccccc2)cc1,active: 16.4 µM
9,Cc1ccc(C(=O)/C=C\C(=O)c2ccc(C)cc2)cc1,"inconclusive: 18.4 µM [activator, single point]"
10,CC(/C=N/N1CCN(c2ccccn2)CC1)=C\c1ccccc1,"inconclusive: 7.31 µM [activator, partial curve]"
11,COc1ccccc1C1C(C(=O)Nc2ccccc2)=C(C)Nc2nc(-c3ccccc3)nn21 (stereo not given),inactive
12,CCc1c(-c2ccccc2)nc(N)c(C#N)c1-c1cccs1,"inconclusive: 16.4 µM [falling, partial curve, poor fit]"
13,Cc1ccc2c(c1)C1CN(C)CCC1N2S(=O)(=O)c1ccc(Oc2ccc([N+](=O)[O-])cc2)cc1 (stereo not given),"inconclusive: 29.1 µM [falling, single point]"
14,O=C(Nc1ccc2ncccc2c1)c1ccccc1Br,"inconclusive: 2.59 µM [activator, partial curve, poor fit]"
15,CCOC(=O)c1ccc(S(=O)(=O)Nc2cc(S(=O)(=O)Nc3ccc(OC)cc3)ccc2O)cc1,"inconclusive: 29.1 µM [activator, single point]"
16,CC1CCC2(CC1)NC(=O)N(CC(=O)Nc1cccc(S(=O)(=O)N3CCCC3)c1)C2=O (stereo not given),active: 5.17 µM
17,O=C(CNCCC1=CCCCC1)Nc1ccccc1N1CCCCCC1,"inconclusive: 29.1 µM [falling, single point]"
18,CC(=O)Nc1ccc(NC(=O)C2CC(=O)N(c3cccc(Cl)c3)C2)cc1 (stereo not given),"inconclusive: 29.1 µM [falling, single point]"
19,CC(C)(C)c1ccc(NC(=O)c2ccc(=O)[nH]n2)cc1,"inconclusive: 7.31 µM [activator, partial curve]"
20,O=C(Nc1nnc(SCC(=O)N2CCOCC2)s1)c1ccccc1,"inconclusive: 29.1 µM [falling, single point]"

# Nothing new here: entries from further up.
row,SMILES,Potency
17,O=C(Nc1nc2ccccc2n1CCOc1ccccc1Cl)c1ccccc1,"inconclusive: 1.03 µM [activator, partial curve, poor fit]"
18,Clc1ccc(CNc2ncnc3[nH]ncc23)cc1Cl,"inconclusive: 25.9 µM [falling, partial curve, poor fit]"
19,Cc1ccc(SCc2nc3ccccc3n2CC(=O)Nc2ccccc2)cc1,"inconclusive: 18.4 µM [falling, single point]"
20,COc1ccc(C2=Nn3c(nnc3-c3ccccc3F)SC2)cc1OCC1CC1,"inconclusive: 20.6 µM [falling, single point]"
1,O=C(CCSc1nc(-c2ccco2)cc(C(F)(F)F)n1)Nc1ccc2c(c1)OCO2,inactive
2,Cc1cc(C)nc(SC2c3cccc4cccc(c34)C2NS(=O)(=O)c2ccccc2)n1 (stereo not given),"inconclusive: 29.1 µM [falling, single point]"
3,c1ccc2c(c1)oc1c(Nc3ccc4c(c3)OCO4)ncnc12,"inconclusive: 0.58 µM [activator, full curve]"
